Measurements from the supplement of paper PMC8256030.
Values joined by “and” are separate entries in the source; they are usually repeats but may differ in a detail not shown here. Identical values can stand only once. The list shows a part of the results. Repeats in this data set agree poorly, so a single value says little.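 HEK293T cells were given each compound shortly before transfection with a reporter in which red mCherry is followed by the SARS-CoV-2 frameshift element and then GFP in the −1 frame, so GFP appears only after frameshifting.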

These molecules were tested on SARS-CoV-2 -1 PRF reporter mCherry-FSE-GFP(-1) (assay: percent effect, decrease of GFP/mCherry ratio (-1 PRF reporter) relative to controls; higher = stronger frameshift inhibition). Settings: 10 µM; 24 h; HEK293T.
Work on CC1(C)Oc2ccc(C#N)cc2[C@H](N2CCCC2=O)[C@H]1O [cromakalim] yielded a percent effect of -3.61%.
Work on CCC(=O)OCC(=O)[C@@]1(OC(=O)CC)[C@H](C)C[C@H]2[C@H]3[C@H]([C@@H](O)C[C@@]21C)[C@@]1(C)C=CC(=O)C=C1C[C@H]3Cl [Alclometasone] yielded a percent effect of -1.22%.
Work on CCCN(CCc1cccs1)[C@H]1CCc2c(O)cccc2C1 [Neupro] yielded a percent effect of -6.09%.
CCC(C/C=C/c1ccccc1)(c1ccccc1)N(C)CC1CC1 (stereo unspecified) [igmesine] gave a percent effect of 0.744%.
C=CC(N)CCC(=O)O (stereo unspecified) [vigabatrin] was tested, and the percent effect was -4.63%.
CCN[C@H]1CN(CCCOC)S(=O)(=O)c2sc(S(N)(=O)=O)cc21 [brinzolamide] was tested, and the percent effect was 0.7% and -5.43%.
CCOc1ccc(C[C@H]2NC(=O)CCSSC[C@@H](C(=O)N3CCC[C@H]3C(=O)N[C@@H](CCCN)C(=O)NCC(N)=O)NC(=O)[C@H](CC(N)=O)NC(=O)[C@H]([C@@H](C)O)NC(=O)[C@H]([C@@H](C)CC)NC2=O)cc1 [atosiban] gave a percent effect of 2.81%.
CC(CCc1ccccc1)NCC(O)c1ccc(O)c(C(N)=O)c1 (stereo unspecified) [labetalol] was tested, and the percent effect was 1.3%.
CCOC(=O)C1=C(C)NC(C)=C(C(=O)OCC)C1c1ccccc1/C=C/C(=O)OC(C)(C)C [lacidipine] gave a percent effect of -1.5%.
Molecule CC(=O)NO [acetohydroxamic acid] has a percent effect of -0.795%.
Work on CN[C@@H]1[C@@H](O)[C@@H](O[C@@H]2[C@@H](O)[C@H](O[C@H]3OC(CN)=CC[C@H]3N)[C@@H](N)C[C@H]2N)OC[C@]1(C)O yielded a percent effect of -11.7%.
CN(C)c1cc(NC(=O)CNC(C)(C)C)c(O)c2c1CC1CC3C(N(C)C)C(=O)C(C(N)=O)=C(O)C3(O)C(=O)C1=C2O (stereo unspecified) [Tygacil] showed a percent effect of -7.3%.
Work on CCNCC1CCN(c2c(F)cc3c(=O)c(C(=O)O)cn(CC)c3c2F)C1 (stereo unspecified) [merafloxacin] yielded a percent effect of 25%.
With CC[C@H](C)[C@H](N)C1=N[C@H](C(=O)N[C@@H](CC(C)C)C(=O)N[C@H](CCC(=O)O)C(=O)N[C@H](C(=O)N[C@H]2CCCCNC(=O)[C@H](CC(N)=O)NC(=O)[C@@H](CC(=O)O)NC(=O)[C@H](Cc3cnc[nH]3)NC(=O)[C@@H](Cc3ccccc3)NC(=O)[C@H]([C@@H](C)CC)NC(=O)[C@@H](CCCN)NC2=O)[C@@H](C)CC)CS1 [Bacitracin] the percent effect was 0.771%.
N[C@@H](CSCCCO)C(=O)O [fudosteine] was tested, and the percent effect was -3.03%.
Work on O=c1[nH]c(=O)n(C2CCCO2)cc1F (stereo unspecified) [tegafur] yielded a percent effect of -1.78%.
O=C1NOCC1/N=C/c1ccc(/C=N/C2CONC2=O)cc1 (stereo unspecified) [terizidone] showed a percent effect of -5.63%.
CC(=O)c1ccc2c(c1)N(CCCN1CCC(CCO)CC1)c1ccccc1S2 [piperacetazine] gave a percent effect of -3.64%.
In the case of CC(C)(Cc1ccccc1)NCC(O)c1ccc(O)c(NS(C)(=O)=O)c1 (stereo unspecified) [zinterol], the percent effect was -2.21%.
Work on CN1CCN(C2=Nc3cc(Cl)ccc3Nc3ccccc32)CC1 yielded a percent effect of -8.79%.
Work on NCCCC[C@H](NC(=O)[C@@H]1CCCN1C(=O)[C@@H]1CSSC[C@H](N)C(=O)N[C@@H](Cc2ccccc2)C(=O)N[C@@H](Cc2ccccc2)C(=O)N[C@@H](CCC(N)=O)C(=O)N[C@@H](CC(N)=O)C(=O)N1)C(=O)NCC(N)=O [Felypressin] yielded a percent effect of -1.72%.
For C/C=C/C/C=C/CCC(=O)[C@H]1O[C@H]1C(N)=O [Helicocerin], the percent effect was -9.07%.
With O=C(O)CN1CCN(CC(=O)O)CCN(CC(=O)O)CCN(CC(=O)O)CC1 [tetraxetan] the percent effect was -2.36%.
Work on C[C@@H](O[C@H]1OCCN(Cc2nn(P(=O)(O)O)c(=O)[nH]2)[C@H]1c1ccc(F)cc1)c1cc(C(F)(F)F)cc(C(F)(F)F)c1 [Fosaprepitant] yielded a percent effect of -1.98%.
For COc1c2occc2c(OC)c2c(=O)cc(C)oc12 [khellin], the percent effect was -0.931%.
CC1(C)S[C@@H]2[C@H](N3C(=O)[C@@H](c4ccccc4)NC3(C)C)C(=O)N2[C@H]1C(=O)O [Hetacillin] was tested, and the percent effect was -1.71%.
CC1Cc2ccccc2N1NC(=O)c1ccc(Cl)c(S(N)(=O)=O)c1 (stereo unspecified) [indapamide] was tested, and the percent effect was -1.93% and -12.9%.
CCCCN(CCCC)CCCOC(=O)c1ccc(N)cc1 [butacaine] gave a percent effect of 1.65%.
Molecule C#C[C@]1(OC(C)=O)CC[C@H]2[C@@H]3CCC4=C[C@@H](OC(C)=O)CC[C@@H]4[C@H]3CC[C@@]21C has a percent effect of -3.55%.
For CCCN(CCC)S(=O)(=O)c1ccc(C)cc1 [ditolamide], the percent effect was -6.55%.
Cc1cc(C#N)cc(C)c1Oc1nc(Nc2ccc(C#N)cc2)nc(N)c1Br [etravirine] was tested, and the percent effect was -13.1%.
